79 compounds from paper PMC12040169 (PLOS Biology, 2025) can be followed below.

Molecules are shown by their SMILES. Some of the results follow.

The test system of this test is T1, CTL2-GFP (C. trachomatis L2/434/Bu, GFP-expressing).
T1 construct: L2/434/Bu, GFP-expressing
More on the design: species or system HeLa; Intracellular C. trachomatis growth in HeLa cells, bulk GFP fluorescence relative to DMSO. As to conditions: bulk GFP, single well; 28.5 h, 10 µM; inhibitor.
On to `COc1cccc(-c2nc(SCC(=O)Nc3ccc([N+](=O)[O-])cc3)[nH]c(=O)c2C#N)c1` [CBK264912], for which the “% of control remaining” value amounted to 139.77%. Next, `CC(=O)Oc1cccc(C(=O)O)c1C` [CBK038235]: 124.474%. Next, `Cc1ccc(C(=O)C2=C(O)C(=O)N(CCCN3CCOCC3)C2c2ccccn2)o1` (stereo not shown) [CBK269187]: 153.698%. Then `CCOc1ccc(C(=O)NC(=S)Nc2ncccc2C)cc1[N+](=O)[O-]` [CBK264128], with 121.168%; and `Cc1nc(CCNCc2c(C)nn(C)c2N2CCOCC2)cs1` [CBK304054], with 119.038%. Consider `Cc1sc2c(c1C)c(=O)nc1scc(CC(=O)NCCO)n12` [CBK266726], for which the “% of control remaining” value worked out at 137.811%.

Take `COc1nccnc1-c1cnn(C)c1` [CBK107069]: the “% of control remaining” value was 122.085%. Then `Cc1noc(-c2ccc3c(c2O)OCCO3)c1-c1ccc(Cl)cc1` [CBK018086], with 3.354%. Next, `Cc1ccc(C(C)C)c(OCCSc2nc3c(N)ncnc3[nH]2)c1` [CBK266941]: 149.892%. Then `CCc1nn(CC(=O)N2CCCCC2)c(=O)c2cc3occc3n12` [CBK283674], with 159.248%. With `O=C(c1ccc(F)cc1)c1cn(CCO)c2c(Cl)nccc12` [CBK285129], the “% of control remaining” value is reported as 138.519%. For the compound `CCOC(=O)C1CCN(Cc2c(O)c3ccccc3oc2=O)CC1` [CBK266035], the “% of control remaining” value was determined as 182.092%. Next, `CCOC(=O)Cc1csc(NS(=O)(=O)c2cc(Cl)c(Cl)s2)n1` [CBK000847]: 117.858%. Regarding `O=C(NC(c1ccc(Cl)cc1)c1cccnc1)C1CCN(C(=O)C2CC2)CC1` (stereo not shown) [CBK059686], the “% of control remaining” value is listed as 108.212%. Then `Cc1nc2c(c(=O)[nH]1)CC[C@@H]1CN(C(=O)c3cc(F)cc(F)c3)C[C@H]21` [CBK284418], with 94.4549%. Regarding `CCc1nc2cccnc2n1CCNC(=O)c1cccs1` [CBK283638], the “% of control remaining” value is given as 131.509%. As for `Cc1c(Cl)cccc1S(=O)(=O)Nc1nc(C(C)Sc2nccn2C)ns1` (stereo not shown) [CBK200052], the “% of control remaining” value is listed as 116.343%.

As for `Cn1c(=O)c2c(ncn2CC(=O)Nc2ccc(C#N)cc2)n(C)c1=O` [CBK133466], the “% of control remaining” value was found to be 107.325%. With `CCCc1oc(C(=O)O)cc1CN1CCCCC1` [CBK267973C], the “% of control remaining” value worked out at 101.877%.

As for `Cc1nc2nc(N)nn2c(C)c1CCC(=O)OCc1cccc(C#N)c1` [CBK306083], the “% of control remaining” value turned out to be 139.138%. For the compound `CC(C)Cn1c(CN2CCOCC2)nc2c1c(=O)n(C)c(=O)n2C` [CBK305913], the “% of control remaining” value was 108.586%. Then `CSCCCNC(=O)N1CCCC(C(=O)O)C1` (stereo not shown) [CBK161343], with 140.218%. On to `CN1CC2(CCCN(Cc3nnc(-c4cccnc4)o3)C2)OC1=O` (stereo not shown) [CBK306888], for which the “% of control remaining” value turned out to be 117.865%. Next, `O=C(O)c1cccc(NS(=O)(=O)c2ccc(-c3cc(C(F)(F)F)on3)s2)c1` [CBK155722]: 120.333%. Then `Cn1c(=O)c2c([nH]c(=S)n2CCCc2ccccc2)n(C)c1=O` [CBK288411], with 82.4553%; and `Nc1ncc(-c2ccsc2)nc1NCc1ccncc1` [CBK063614], with 195.869%. Consider `CN(C(=O)c1ccccc1)[C@]1(C)C2CC(C[C@@H]2O)C1(C)C` (stereo partly shown) [CBK010498], for which the “% of control remaining” value was found to be 90.8163%. For the compound `CCC(c1ccc(F)cc1)N(C)C(=O)Cn1cccc(C(=O)Nc2ccc(F)cc2)c1=O` (stereo not shown) [CBK286061], the “% of control remaining” value stood at 98.7225%.

For the compound `COCC(=O)N[C@H]1CCN2C(=O)c3cc(-c4ccc(F)cc4F)ccc3NC(=O)[C@@H]2C1` [CBK289561], the “% of control remaining” value was 121.494%. Then `Cc1ccc(CC(=O)N2CCC(Cc3ccc(-c4cccc(C)c4)cc3)(C(N)=O)CC2)cc1` [CBK285906], with 125.694%; and `O=C(Nc1ccc2c(c1)OCCO2)c1cnc(-c2ccc(Cl)cc2)c(-c2cccnc2)c1` [CBK037528], with 125.664%. With `O=[N+]([O-])c1ccc(CSc2nnc(-c3cccnc3)n2Cc2ccco2)cc1` [CBK264580], the “% of control remaining” value amounted to 130.087%. Then `CN1CCN(C2Cc3ccccc3Sc3c(O)cccc32)CC1` (stereo not shown) [CBK026200G], with 128.518%.

For the compound `O=C(CC1CCN(C(=O)CC2CCCCC2)CC1)Nc1ccccc1CN1CCCC1` [CBK286046], the “% of control remaining” value was determined as 147.084%. Then `COc1ccc(-c2cc(C(F)(F)F)c3c(n2)sc2c(=O)cc(O)[nH]c23)cc1OC` [CBK270201], with 128.256%. Then `Cc1ccsc1C(C)NC1CCCN(c2ccn(C)n2)C1=O` (stereo not shown) [CBK306419], with 100.752%; and `O=C1c2cccc3cccc(c23)C(=O)N1CCCSc1nnc[nH]1` [CBK268894], with 166.547%; and `N#C/C(=C\c1ccc(-c2cccc(C(=O)O)c2)o1)c1nc2ncc(Br)cc2[nH]1` [CBK265054], with 100%.

As for `O=C(O)CCC(=O)N1CC[C@H]2NC(=O)N(c3ccc(F)cc3)C(=O)[C@H]21` [CBK289329], the “% of control remaining” value is given as 103.187%. With `COc1ccccc1OCCOc1ccc(/C=N/n2cnnc2)cc1` [CBK263295], the “% of control remaining” value is listed as 122.026%. Next, `Cc1c(C(=O)Nc2ccc(OCc3ccccc3F)cc2)sc2nc[nH]c(=O)c12` [CBK285834]: 134.361%. Next, `OC(CN1CCC(O)(c2ccc(F)cc2)CC1)c1ccccc1` (stereo not shown) [CBK282489]: 127.74%; `COc1ccc(CC(=O)N2CCCCC2c2cc(-c3ccc(F)cc3)cc(C)n2)cc1OC` (stereo not shown) [CBK285858]: 84.4506%; `c1ccc(Oc2ccccc2-c2ccc(Nc3ccc(N4CCOCC4)cc3)nc2)cc1` [CBK036913]: 218.918%. Then `CC(C)(CSc1ncccn1)NS(=O)(=O)c1ccccc1` [CBK268282], with 135.373%; and `O=C(O)c1ccc(NS(=O)(=O)c2ccc3c(c2)OCCO3)cc1` [CBK296129], with 129.935%.

Consider `CC(=O)Nc1ccc(-c2cccc(COC3CCN(C(=O)Cc4ccc(Cl)c(Cl)c4)CC3)c2)cc1` [CBK149487], for which the “% of control remaining” value is given as 109.897%. Turning to `CCCOC1CCCN(C(=O)c2cc(Cl)c[nH]2)C1` (stereo not shown) [CBK304802], the “% of control remaining” value turned out to be 182.93%. Then `CC(NC(=O)C1(Cn2ccnc2)CC1)c1nncn1C(C)C` (stereo not shown) [CBK306682], with 100.506%; and `CCOc1cc(NC2CCN(C(=O)C3CCCC3)C2)ncn1` (stereo not shown) [CBK304137], with 80.4032%; and `COc1ccc(Cn2nc(NC(C)=O)c3ccccc32)cc1` [CBK048200], with 101.405%. In the case of `COc1ccc(S(=O)(=O)Nc2ccc(S(=O)(=O)Nc3nccs3)cc2)c([N+](=O)[O-])c1` [CBK266801], the “% of control remaining” value is on record as 7.985%.

`O=C(CC1C(=O)Nc2ncnn21)Nc1ccccc1` (stereo not shown) [CBK288071]: the “% of control remaining” value is 115.485%.

On to `O=C(O)/C=C/c1cn([C@H]2C[C@@H](O)[C@@H](CO)O2)c(=O)[nH]c1=O` [CBK201174], for which the “% of control remaining” value came to 148.013%. On to `O=C(O)Cc1ccc(OCC(=O)NCCCSc2ccccc2)cc1` [CBK296630], for which the “% of control remaining” value amounted to 134.098%.

In the case of `Cc1ccc(NC(=O)CSc2cc(-n3nc(C)cc3C)ncn2)cc1` [CBK287820], the “% of control remaining” value is given as 102.165%.

On to `CC(C)C(=O)N1CCCC(n2c(=O)oc3ccc(Cl)cc32)C1` (stereo not shown) [CBK282890], for which the “% of control remaining” value came to 106.839%.

On to `COc1ccc(C(=O)NCC2(c3ccc(OC)c(OC)c3)CCCCC2)c(OC)c1` [CBK067049], for which the “% of control remaining” value amounted to 107.949%.

As for `Cc1cc(OCC(=O)N2CCCc3c(cnn3C)C2)ccc1Cl` [CBK285277], the “% of control remaining” value amounted to 102.461%. Then `Nc1c(Cc2c(Cl)cccc2Cl)c(=O)n2n1CCCC2` [CBK089337], with 127.461%. Then `O=C(NCc1cccnc1)c1cc2c(ccc3ccccc32)oc1=O` [CBK270195], with 149.277%. For `Cn1c(=O)c2c(ncn2CCCn2cnc3c2c(=O)n(C)c(=O)n3C)n(C)c1=O` [CBK268933], the “% of control remaining” value was 145.647%. For `Cc1cn2c3c(=O)n(CCN4CCCCC4)c(=O)n(C)c3nc2n1CC1CCCO1` (stereo not shown) [CBK269820], the “% of control remaining” value was 116.479%.

For `COc1ccc(C(CC(=O)O)C(=O)O)cc1OC` (stereo not shown) [CBK261943], the “% of control remaining” value was 115.39%. Next, `COc1ccc([N+](=O)[O-])cc1NC(=O)C1(c2ccc(OC)c(OC)c2)CCOCC1` [CBK266243]: 227.836%; `O=C(NC[C@H]1CC[C@H](c2nnc(-c3ccsc3)o2)CC1)C1CC1` [CBK283361]: 123.231%.

For the compound `CSCc1nnc(SCc2ccccc2Oc2ccccc2)o1` [CBK296743], the “% of control remaining” value came to 133.09%.

For `CCN(CC)C(=O)COc1ccc(NC(=O)Nc2cc(C)on2)cc1Cl` [CBK305734], the “% of control remaining” value was determined as 87.1774%.

Turning to `COC(=O)c1c(COC(=O)c2cnc(Cl)c(Cl)c2)nc2ccccc2c1C` [CBK296940], the “% of control remaining” value came to 132.82%.

For the compound `Cc1nn(C)cc1C(=O)N1CCCCC1c1nc2ccccc2[nH]1` (stereo not shown) [CBK283779], the “% of control remaining” value is given as 122.495%. Consider `CC(c1ccc(F)c(F)c1)N(C)C(=O)Cn1[nH]c(=O)ccc1=O` (stereo not shown) [CBK305810], for which the “% of control remaining” value was determined as 170.563%. Next, `COC12CCCC(C(=O)O)(CCC1)C2` [CBK038238]: 108.678%; `O=C(NCc1c(Cl)cccc1Cl)N(Cc1cccnc1)Cc1ccc2c(c1)OCO2` [CBK159450]: 54.3459%; `Nc1nc(Cl)cc(Sc2ccc3ccccc3c2)n1` [CBK021630]: 156.425%. In the case of `Cc1ccc(NC(=O)CN2CCN(Cc3ccc4c(c3)OCO4)CC2)cc1` [CBK074403], the “% of control remaining” value amounted to 100%. Next, `COc1ccc(CCNC(=O)c2cc3c([nH]c2=O)CCC3)cc1C` [CBK281627]: 120.751%; `CCCNc1cncc(-c2cccnc2)n1` [CBK037921]: 116.546%.

As to `O=C(c1cc[nH]n1)N1CCCC(c2cc3ccccc3cn2)C1` (stereo not shown) [CBK284921], the “% of control remaining” value amounted to 131.116%. Then `CCCC(C(=O)O)C(C)CC(=O)Nc1ccccc1Cl` (stereo not shown) [CBK286927], with 99.036%.
